No constants are given. Whether binding was seen depends on the method and setting.
B1: Aux/IAA12 (protein, UniProt Q38830 1-239)
chain: MRGVSELEVGKSNLPAESELELGLGLSLGGGAWKERGRILTAKDFPSVGSKRSAESSSHQGASPPRSSQVVGWPPIGLHRMNSLVNNQAMKAARAEEGDGEKKVVKNDELKDVSMKVNPKVQGLGFVKVNMDGVGIGRKVDMRAHSSYENLAQTLEEMFFGMTGTTCREKVKPLRLLDGSSDFVLTYEDKEGDWMLVGDVPWRMFINSVKRLRIMGTSEASGLAPRRQEQKDRQRNNPV
B2: Aux/IAA13 (protein, UniProt Q38831 1-247)
chain: MITELEMGKGESELELGLGLSLGGGTAAKIGKSGGGGAWGERGRLLTAKDFPSVGSKRAADSASHAGSSPPRSSSQVVGWPPIGSHRMNSLVNNQATKSAREEEEAGKKKVKDDEPKDVTKKVNGKVQVGFIKVNMDGVAIGRKVDLNAHSSYENLAQTLEDMFFRTNPGTVGLTSQFTKPLRLLDGSSEFVLTYEDKEGDWMLVGDVPWRMFINSVKRLRVMKTSEANGLAARNQEPNERQRKQPV
B3: Aux/IAA15 (protein, UniProt Q9C966 1-179)
chain: MSPEEYVRVWPDSGDLGGTELTLALPGTPTNASEGPKKFGNKRRFLETVDLKLGEAHENNYISSMVTNDQLVGWPPVATARKTVRRKYVKVALDGAAYLRKVDLGMYDCYGQLFTALENMFQGIITICRVTELERKGEFVATYEDKDGDLMLVGDVPWMMFVESCKRMRLMKTGDAIGL
B4: Aux/IAA16 (protein, UniProt O24407 1-236)
chain: MINFEATELRLGLPGGNHGGEMAGKNNGKRGFSETVDLKLNLSSTAMDSVSKVDLENMKEKVVKPPAKAQVVGWPPVRSFRKNVMSGQKPTTGDATEGNDKTSGSSGATSSASACATVAYVKVSMDGAPYLRKIDLKLYKTYQDLSNALSKMFSSFTIGNYGPQGMKDFMNESKLIDLLNGSDYVPTYEDKDGDWMLVGDVPWEMFVDSCKRIRIMKGSEAIGLAPRALEKCKNRS
B5: Aux/IAA18 (protein, UniProt O24408 1-267)
chain: MEGYSRNGEISPKLLDLMIPQERRNWFHDEKNSVFKTEEKKLELKLGPPGEEDDDESMIRHMKKEPKDKSILSLAGKYFSPSSTKTTSHKRTAPGPVVGWPPVRSFRKNLASGSSSKLGNDSTTSNGVTLKNQKCDAAAKTTEPKRQGGMFVKINMYGVPIGRKVDLSAHNSYEQLSFTVDKLFRGLLAAQRDFPSSIEDEKPITGLLDGNGEYTLTYEDNEGDKMLVGDVPWQMFVSSVKRLRVIKTSEISSALTYGNGKQEKMRR
B6: Aux/IAA19 (protein, UniProt O24409 1-197)
chain: MEKEGLGLEITELRLGLPGRDVAEKMMKKRAFTEMNMTSSGSNSDQCESGVVSSGGDAEKVNDSPAAKSQVVGWPPVCSYRKKNSCKEASTTKVGLGYVKVSMDGVPYLRKMDLGSSQGYDDLAFALDKLFGFRGIGVALKDGDNCEYVTIYEDKDGDWMLAGDVPWGMFLESCKRLRIMKRSDATGFGLQPRGVDE
B7: Aux/IAA20 (protein, UniProt O24410 1-175)
chain: MGRGRSSSSSSIESSSKSNPFGASSSTRNLSTDLRLGLSFGTSSGTQYFNGGYGYSVAAPAVEDAEYVAAVEEEEENECNSVGSFYVKVNMEGVPIGRKIDLMSLNGYRDLIRTLDFMFNASILWAEEEDMCNEKSHVLTYADKEGDWMMVGDVPWEMFLSTVRRLKISRANYHY
B8: Aux/IAA26 (protein, UniProt Q8LAL2 1-269)
chain: MEGCPRNREIGPKLLDLIPQGRKWYQEDKNNTDQEKKLELRLGPPGGDEEDHSAIKKKNTEIRNIKKETEDKSFHCFNGNHFSPSNKTTSVPHISQKRTAPGPVVGWPPVRSFRKNLASTSSSKLGNESSHGGQINKSDDGEKQVETKKEGMFVKINMDGVPIGRKVDLNAYNSYEQLSFVVDKLFRGLLAAQRDISDGQGEEKPIIGLLDGKGEFTLTYEDNEGDKMLVGDVPWQMFVSSVKRLRVIKSSEISSALTFGCSKQEKMMH
B9: Aux/IAA27 (protein, UniProt Q9ZSY8 1-305)
chain: MSVSVAAEHDYIGLSEFPTMEATTMSDKTKTRDNNNGLNFKATELRLGLPGSESPERVDSRFLALNKSSCPVSGAKRVFSDAINDSNKWVFSPGSTTATGDVGSGSGPRTSVVKDGKSTTFTKPAVPVKEKKSSATAPASKAQVVGWPPIRSFRKNSMASSQSQKPGNNSETEEAEAKSGPEQPCLYVKVSMEGAPYLRKIDLKTYKSYLELSSALEKMFSCFTIGQFGSHGGCGRDGLNESRLTDLLRGSEYVVTYEDKDSDWMLVGDVPWEMFICSCKKLRIMKSSEAIGLAPRVMEKCRSRN
B10: Aux/IAA28 (protein, UniProt Q9XFM0 1-175)
chain: MEEEKRLELRLAPPCHQFTSNNNINGSKQKSSTKETSFLSNNRVEVAPVVGWPPVRSSRRNLTAQLKEEMKKKESDEEKELYVKINMEGVPIGRKVNLSAYNNYQQLSHAVDQLFSKKDSWDLNRQYTLVYEDTEGDKVLVGDVPWEMFVSTVKRLHVLKTSHAFSLSPRKHGKE
B11: Aux/IAA29 (protein, UniProt Q93WC4 1-251)
chain: MELDLGLSLSPHKSSKLGFNFDLNKHCAIEGAASCLGTEKLRFEATFGLGNVEENCYMPKQRLFALNGQPNEEDEDPLESESSIVYDDEEENSEVVGWPPVKTCMIKYGSYHHRHIRNHHHCPYHHRGRRITAMNNNISNPTTATVGSSSSSSISSRSSMYVKVKMDGVAIARKVDIKLFNSYESLTNSLITMFTEYEDCDREDTNYTFTFQGKEGDWLLRGDVTWKIFAESVHRISIIRDRPCAYTRCLF
B12: Aux/IAA30 (protein, UniProt Q9M1R4 1-172)
chain: MGRGRSSSSSSIESSCKSNPFGVSSSNTRNLSTDLRLGLSFGSSSGQYYNGGDNHEYDGVGAAEEMMIMEEEEQNECNSVGSFYVKVNMEGVPIGRKIDLLSLNGYHDLITTLDYMFNASILWAEEEDMCSEKSHVLTYADKEGDWMMVGDVPWEMFLSSVRRLKISRAYHY
B13: Aux/IAA31 (protein, UniProt Q8H174 1-158)
chain: MEVSNSCSSFSSSSVDSTKPSPSESSVNLSLSLTFPSTSPQREARQDWPPIKSRLRDTLKGRRLLRRGDDTSLFVKVYMEGVPIGRKLDLCVFSGYESLLENLSHMFDTSIICGNRDRKHHVLTYEDKDGDWMMVGDIPWDMFLETVRRLKITRPERY
B14: Aux/IAA32 (protein, UniProt Q8RYC6 1-191)
chain: MDPNTPADFFKGSSKFHTYYSQTKKGGGVIDLGLSLRTIQHETYLPPARMIGLDGYGELIDWSQPSYNSITQLKSEDTGHQRLAQGYYNNEGESRGKYAYVKVNLDGLVVGRKVCLVDQGAYATLALQLNDMFGMQTVSGLRLFQTESEFSLVYRDREGIWRNVGDVPWKEFVESVDRMRIARRNDALLPF
B15: Aux/IAA33 (protein, UniProt Q9FKM7 1-171)
chain: MNSFEPQSQDSLQRRFHQDNSTTQQPRDTTTPFIPKPASKNHNNSNSSSGAAGRSFQGFGLNVEDDLVSSVVPPVTVVLEGRSICQRISLDKHGSYQSLASALRQMFVDGADSTDDLDLSNAIPGHLIAYEDMENDLLLAGDLTWKDFVRVAKRIRILPVKGNTRQVKRNE
B16: Aux/IAA34 (protein, UniProt Q9C5X0 1-185)
chain: MYCSDPPHPLHLVASDKQQKDHKLILSWKKPTMDSDPLGVFPNSPKYHPYYSQTTEFGGVIDLGLSLRTIQHEIYHSSGQRYCSNEGYRRKWGYVKVTMDGLVVGRKVCVLDHGSYSTLAHQLEDMFGMQSVSGLRLFQMESEFCLVYRDEEGLWRNAGDVPWNEFIESVERLRITRRNDAVLPF
B17: Aux/IAA1 (protein, UniProt P49677 1-168)
chain: MEVTNGLNLKDTELRLGLPGAQEEQQLELSCVRSNNKRKNNDSTEESAPPPAKTQIVGWPPVRSNRKNNNNKNVSYVKVSMDGAPYLRKIDLKMYKNYPELLKALENMFKFTVGEYSEREGYKGSGFVPTYEDKDGDWMLVGDVPWDMFSSSCQKLRIMKGSEAPTAL
B18: Aux/IAA2 (protein, UniProt P49678 1-174)
chain: MAYEKVNELNLKDTELCLGLPGRTEKIKEEQEVSCVKSNNKRLFEETRDEEESTPPTKTQIVGWPPVRSSRKNNNSVSYVKVSMDGAPYLRKIDLKTYKNYPELLKALENMFKVMIGEYCEREGYKGSGFVPTYEDKDGDWMLVGDVPWDMFSSSCKRLRIMKGSDAPALDSSL
B19: Aux/IAA3 (protein, UniProt Q38822 1-189)
chain: MDEFVNLKETELRLGLPGTDNVCEAKERVSCCNNNNKRVLSTDTEKEIESSSRKTETSPPRKAQIVGWPPVRSYRKNNIQSKKNESEHEGQGIYVKVSMDGAPYLRKIDLSCYKGYSELLKALEVMFKFSVGEYFERDGYKGSDFVPTYEDKDGDWMLIGDVPWEMFICTCKRLRIMKGSEAKGLGCGV
B20: Aux/IAA4 (protein, UniProt P33077 1-186)
chain: MEKVDVYDELVNLKATELRLGLPGTEETVSCGKSNKRVLPEATEKEIESTGKTETASPPKAQIVGWPPVRSYRKNNVQTKKSESEGQGNYVKVSMDGAPYLRKIDLTMYKQYPELMKSLENMFKFSVGEYFEREGYKGSDFVPTYEDKDGDWMLVGDVPWEMFVSSCKRLRIMKGSEVKGLGCGGL
B21: Aux/IAA5 (protein, UniProt P33078 1-163)
chain: MANESNNLGLEITELRLGLPGDIVVSGESISGKKRASPEVEIDLKCEPAKKSQVVGWPPVCSYRRKNSLERTKSSYVKVSVDGAAFLRKIDLEMYKCYQDLASALQILFGCYINFDDTLKESECVPIYEDKDGDWMLAGDVPWEMFLGSCKRLRIMKRSCNRG
B22: Aux/IAA6 (protein, UniProt Q38824 1-189)
chain: MAKEGLALEITELRLGLPGDNYSEISVCGSSKKKKRVLSDMMTSSALDTENENSVVSSVEDESLPVVKSQAVGWPPVCSYRRKKNNEEASKAIGYVKVSMDGVPYMRKIDLGSSNSYINLVTVLENLFGCLGIGVAKEGKKCEYIIIYEDKDRDWMLVGDVPWQMFKESCKRLRIVKRSDATGFGLQQD

Chains of the proteins cited; added tags and fusions are not shown. Lines headed by an entry give the natural chain unless they say otherwise; changes in a name come on top.
UniProt Q9FX25: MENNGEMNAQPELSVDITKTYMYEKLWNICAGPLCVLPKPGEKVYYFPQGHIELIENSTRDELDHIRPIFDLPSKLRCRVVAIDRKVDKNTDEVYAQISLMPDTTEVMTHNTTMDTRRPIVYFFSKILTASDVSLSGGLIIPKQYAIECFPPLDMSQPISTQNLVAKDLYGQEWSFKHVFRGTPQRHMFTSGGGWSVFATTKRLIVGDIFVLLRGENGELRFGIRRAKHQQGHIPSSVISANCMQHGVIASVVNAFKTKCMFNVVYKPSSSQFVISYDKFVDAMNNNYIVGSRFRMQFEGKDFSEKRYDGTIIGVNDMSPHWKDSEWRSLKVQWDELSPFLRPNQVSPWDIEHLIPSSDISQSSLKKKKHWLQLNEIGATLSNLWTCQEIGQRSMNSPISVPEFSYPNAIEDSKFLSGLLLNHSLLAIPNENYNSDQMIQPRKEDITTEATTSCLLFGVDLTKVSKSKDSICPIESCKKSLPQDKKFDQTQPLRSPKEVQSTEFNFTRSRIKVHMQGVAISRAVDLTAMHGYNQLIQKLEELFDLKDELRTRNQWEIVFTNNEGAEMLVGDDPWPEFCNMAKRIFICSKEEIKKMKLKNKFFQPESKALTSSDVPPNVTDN
UniProt Q38825: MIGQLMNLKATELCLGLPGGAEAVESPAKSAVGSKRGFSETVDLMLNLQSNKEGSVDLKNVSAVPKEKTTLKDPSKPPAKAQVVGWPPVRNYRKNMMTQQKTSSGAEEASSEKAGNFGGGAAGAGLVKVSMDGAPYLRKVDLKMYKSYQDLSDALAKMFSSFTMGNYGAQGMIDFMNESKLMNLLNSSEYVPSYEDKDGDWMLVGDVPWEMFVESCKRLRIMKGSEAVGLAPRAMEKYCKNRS
UniProt P93830: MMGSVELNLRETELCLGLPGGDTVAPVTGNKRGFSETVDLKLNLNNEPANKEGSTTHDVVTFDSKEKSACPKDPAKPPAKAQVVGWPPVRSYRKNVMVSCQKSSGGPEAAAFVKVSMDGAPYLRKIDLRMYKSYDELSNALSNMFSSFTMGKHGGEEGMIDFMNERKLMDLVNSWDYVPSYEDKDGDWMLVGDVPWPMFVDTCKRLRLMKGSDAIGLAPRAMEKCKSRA
UniProt Q38832: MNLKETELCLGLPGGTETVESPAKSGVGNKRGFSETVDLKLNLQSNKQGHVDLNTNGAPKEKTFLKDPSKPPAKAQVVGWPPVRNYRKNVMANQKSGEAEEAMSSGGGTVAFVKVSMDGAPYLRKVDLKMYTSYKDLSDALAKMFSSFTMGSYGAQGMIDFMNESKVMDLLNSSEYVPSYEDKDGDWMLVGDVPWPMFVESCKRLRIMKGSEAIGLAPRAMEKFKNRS

Each molecule was assayed against ARF13 (Arabidopsis thaliana) (UniProt Q9FX25) (assay: two-hybrid; S. cerevisiae AH109 co-transformed with pGBKT7-ARF (bait) and pGADT7-Aux/IAA (prey); growth on SD/-Ade-His-Leu-Trp against SD/-Leu/-Trp; at least 10 independent colonies; serial dilutions for strength).

Q: With Aux/IAA7 (from UniProt Q38825 1-243) as the molecule, how does the binding read?
A: The binding was “no binding”.

Q: Aux/IAA17 (from UniProt P93830 1-229) was tested. Which binding did it give?
A: The binding was “no binding”.

Q: Which binding does the source give for Aux/IAA14 (from UniProt Q38832 1-228) here?
A: Its binding is “no binding”.

Q: Which binding does the source give for B1 here?
A: Its binding is “no binding”.

Q: B2 was tested. Which binding did it give?
A: The binding was “no binding”.

Q: How did the binding turn out when B3 was run?
A: Its binding is “no binding”.

Q: With B4 as the molecule, how does the binding read?
A: The binding was “no binding”.

Q: B5 was tested. Which binding did it give?
A: The binding was “no binding”.

Q: B6 was tested. Which binding did it give?
A: Its binding is “no binding”.

Q: B7 was tested. Which binding did it give?
A: The binding was “no binding”.

Q: B8 was tested. Which binding did it give?
A: The binding was “no binding”.

Q: Which binding does the source give for B9 here?
A: The binding was “no binding”.

Q: With B10 as the molecule, how does the binding read?
A: Its binding is “no binding”.

Q: For B11, which binding is on record?
A: The binding was “no binding”.

Q: B12 was tested. Which binding did it give?
A: The binding was “no binding”.

Q: For B13, which binding is on record?
A: Its binding is “no binding”.

Q: B14 was tested. Which binding did it give?
A: The binding was “no binding”.

Q: For B15, which binding is on record?
A: The binding was “no binding”.

Q: How did the binding turn out when B16 was run?
A: Its binding is “no binding”.

Q: Which binding does the source give for B17 here?
A: The binding was “no binding”.

Q: B18 was tested. Which binding did it give?
A: The binding was “no binding”.

Q: Which binding does the source give for B19 here?
A: The binding was “no binding”.

Q: Which binding does the source give for B20 here?
A: The binding was “no binding”.

Q: Which binding does the source give for B21 here?
A: The binding was “no binding”.

Q: For B22, which binding is on record?
A: Its binding is “no binding”.

Reference: paper PMC4274898
